# Primary screen of a compound library

Source: ChEMBL document CHEMBL3988442, “University of Dundee, Small-Polar-MMV Screening Library” (2021).

Mtb growth Cornell: 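Whole-cell assay for inhibitors of Mycobacterium tuberculosis growth, labelled Cornell in the record; the read-out is not stated. The concentration is filed as 10 mM, unlikely as a test dose, so the dose is not known. The record gives no direction; compounds strong in two other growth screens of this library score well above the rest, so higher reads as stronger inhibition. Of about 53,000 compounds tested this way, about 900 (1.7%) reached 50% or more in at least one test.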
Mtb heat-shock: 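Assay on Mycobacterium tuberculosis, filed only as a heat shock assay from Cornell; the read-out is not stated. The concentration is filed as 10 mM, unlikely as a test dose, so the dose is not known. Direction is inferred from retests: higher values go with stronger inhibition. Of about 69,000 compounds tested this way, about 930 (1.4%) reached 50% or more in at least one test.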

Results are given as percent effect.
How 0% and 100% were set is not recorded. Most values in the screen are low, and negative values occur.
This is an unselected part of the compounds tested.

{"compound": "c1ccc(C2CCCN(c3ncnc4c3CCNC4)CC2)cc1", "stereo": "centres unmarked", "Mtb heat-shock": 36.82}
{"compound": "CCCc1nc(CN(CC)Cc2ccc(O)c(C(=O)O)c2)no1", "Mtb growth Cornell": 25.7, "Mtb heat-shock": -2.751}
{"compound": "O=c1cc(N2CCCCC2)cnn1C[C@H](O)CO", "Mtb growth Cornell": 2.513, "Mtb heat-shock": 5.911}
{"compound": "O=C(O)C(F)(F)F.[H][C@]12C[C@@H](C(=O)NCCc3cccs3)CO[C@@]1([H])CCN(CC1CC1)C2", "Mtb growth Cornell": 6.068, "Mtb heat-shock": 1.069}
{"compound": "CC(C)(C)c1nc(NS(=O)(=O)c2ccccc2F)no1", "Mtb growth Cornell": -5.586, "Mtb heat-shock": 1.076}
{"compound": "Cc1ncccc1CNCC1CCCN1c1cccnn1", "stereo": "centres unmarked", "Mtb heat-shock": -13.54}
{"compound": "NS(=O)(=O)CCN1CCOC(c2ccsc2)C1", "stereo": "centres unmarked", "Mtb growth Cornell": -27.92, "Mtb heat-shock": -28.45}
{"compound": "CCN1CCc2[nH]cnc2C12CCN(c1ccc(Cl)cn1)CC2", "Mtb growth Cornell": -19.94, "Mtb heat-shock": -6.9}
{"compound": "COCC(=O)N1CCC2(CC1)NC(=O)c1ccccc12.Cl", "Mtb growth Cornell": -53.01, "Mtb heat-shock": -29.75}
{"compound": "CCCn1nc2c(cc1=O)CN(Cc1ncc(C(C)(C)C)o1)CC2", "Mtb heat-shock": 5.486}
{"compound": "CC(NC(=O)NCc1ccccc1Cl)c1ccccn1", "stereo": "centres unmarked", "Mtb heat-shock": -53.96}
{"compound": "COCC(=O)N[C@H](C)c1onc(-c2ccc(OC)cc2)c1C(=O)O", "Mtb growth Cornell": -15.71, "Mtb heat-shock": -28.53}
{"compound": "CC[C@H]1CN(S(=O)(=O)c2ccc(OC)cc2)CC[C@H]1CC(=O)O", "Mtb heat-shock": -14.68}
{"compound": "Cc1nn(C)c(Cl)c1C1CCCN1C(=O)c1cnn(C)c1C1CC1", "stereo": "centres unmarked", "Mtb growth Cornell": -27.5, "Mtb heat-shock": 4.84}
{"compound": "CSc1[nH]nc(NC(=O)c2cccnc2)c1C#N", "Mtb growth Cornell": -9.76, "Mtb heat-shock": -10.13}
{"compound": "Cc1cnccc1NCCNC1CCN(CC(C)C)CC1", "Mtb growth Cornell": -8.419, "Mtb heat-shock": 6.227}
{"compound": "Cc1nc(COC[C@H]2CCC[C@@]23CN(C(C)C)CCO3)cs1.O=C(O)C(F)(F)F", "Mtb growth Cornell": 2.154, "Mtb heat-shock": -25.66}
{"compound": "CCNC(=O)[C@@H]1CN(Cc2ccccc2)C[C@H]1C(=O)c1ccc(F)cc1", "Mtb growth Cornell": 56.73, "Mtb heat-shock": -1.941}
{"compound": "Cc1cnccc1N1CCCN(C(=O)CCc2n[nH]c(C)c2C)CC1", "Mtb growth Cornell": -3.189, "Mtb heat-shock": -14.4}
{"compound": "COCCN1CCC(NCc2c(F)cccc2F)C1", "stereo": "centres unmarked", "Mtb heat-shock": -3.864}
{"compound": "Cc1cccc(-c2cc(C(=O)O)sn2)c1", "Mtb growth Cornell": 49.1, "Mtb heat-shock": -7.638}
{"compound": "CCN1Cc2cc(F)ccc2N(CC(O)C(F)(F)F)CCC1=O", "stereo": "centres unmarked", "Mtb growth Cornell": -35.12, "Mtb heat-shock": 51.9}
{"compound": "O=C(O)C(F)(F)F.[H][C@@]12COC[C@]1(COCC(=O)N(C)C)CN(CC1CCC1)C2", "Mtb growth Cornell": 10.71, "Mtb heat-shock": -4.427}
{"compound": "[H][C@@]12CCN(C)[C@]1([H])CN(C(=O)c1ccc3sc4c(c3c1)CCNC4=O)C2", "Mtb growth Cornell": 8.865, "Mtb heat-shock": 8.079}
{"compound": "Cc1nc(C)n(CC2CN(S(C)(=O)=O)Cc3nccn3C2)n1", "stereo": "centres unmarked", "Mtb growth Cornell": -26.12, "Mtb heat-shock": -2.747}
{"compound": "O=C1CCCN1Cc1ncn2c1CN(C(=O)c1cccc(F)c1)CCC2", "Mtb growth Cornell": 0.4291, "Mtb heat-shock": -0.3119}
{"compound": "O=C(c1ccc(F)cc1Cl)N1CCn2c(nnc2C(F)(F)F)C1", "Mtb growth Cornell": 7.794, "Mtb heat-shock": -6.318}
{"compound": "CCN(Cc1ccccn1)Cc1cc(Cl)ccc1OC", "Mtb growth Cornell": 35.12, "Mtb heat-shock": 4.833}
{"compound": "CCn1c(CN(C)C)nnc1C1CCN(Cc2ccc(Cl)cc2)CC1", "Mtb growth Cornell": 20.44, "Mtb heat-shock": -4.596}
{"compound": "Cc1cnn(CC2CCCN2Cc2nnc(C)o2)c1", "stereo": "centres unmarked", "Mtb growth Cornell": 4.607, "Mtb heat-shock": 3.114}
{"compound": "CS(=O)(=O)NCc1cnc2n1CCN(Cc1ccccn1)CC2.O=C(O)C(F)(F)F", "Mtb growth Cornell": 12.2, "Mtb heat-shock": -38.1}
{"compound": "O=C(N1CCC(O)(C(F)(F)F)C1)C1(c2cccc(Cl)c2)CC1", "stereo": "centres unmarked", "Mtb growth Cornell": 1.103, "Mtb heat-shock": -25.51}
{"compound": "Cc1nc(CN2CCCC(c3cc(C(N)=O)[nH]n3)C2)oc1C", "stereo": "centres unmarked", "Mtb growth Cornell": -8.69, "Mtb heat-shock": -1.694}
{"compound": "O=C(CN1CCOCC1)N(c1ccccc1)c1ccccc1", "Mtb heat-shock": 17.87}
{"compound": "COCC(=O)N1CCN(C(=O)NC(C)C)CC2(CC(=O)N(C)C2)C1", "stereo": "centres unmarked", "Mtb growth Cornell": 9.459, "Mtb heat-shock": 4.024}
{"compound": "Cc1nn(C)c(C)c1C(=O)NC(C)CC(=O)c1cccs1", "stereo": "centres unmarked", "Mtb growth Cornell": -12.43, "Mtb heat-shock": 10.15}
{"compound": "O=C(O)C(F)(F)F.O=S(=O)(C1CC1)N1CCOC2(CCCN(Cc3ccccn3)C2)C1", "stereo": "centres unmarked", "Mtb growth Cornell": 19.48, "Mtb heat-shock": 5.946}

Once more, the final 2:

| compound | Mtb growth Cornell | Mtb heat-shock |
|---|---|---|
| `Cc1nn(C)c(C)c1C(=O)NC(C)CC(=O)c1cccs1` (centres unmarked) | -12.43 | 10.15 |
| `O=C(O)C(F)(F)F.O=S(=O)(C1CC1)N1CCOC2(CCCN(Cc3ccccn3)C2)C1` (centres unmarked) | 19.48 | 5.946 |